Results from patent US11464879B2, “Cellular targeted active ingredient delivery system” (CELLIS SP. Z O.O. [LTD.], priority 2015, dated 2022).

Legend:
[1] = tested on: CD45+ leukocytes (macrophages, monocytes, lymphocytes, granulocytes); test: uptake of iron binding protein by CD45+ leukocyte cells; format: cell-based; details: cells incubated 1-4 hrs in protein solution (ferritin 0.2 mg/ml; haemoglobin, transferrin 0.1 mg/ml), standard culture conditions
[2] = tested on: cancer cells: mouse mammary cancer, colon cancer, canine mammary cancer, human breast, pancreatic, and bladder cancer; test: transfer of carrier protein from loaded leukocytes to cancer cells; format: cell-based

B1: ferritins: recombinant mammalian ferritin proteins H and/or L homopolymers; mouse protein of SEQ ID NO: 4 expressed in E. coli (protein)
chain: MTTASPSQVRQNYHQDAEAAINRQINLELYASYVYLSMSCYFDRDDVALKNFAKYFLHQSHEEREHAEKLMKLQNQRGGRIFLQDIKKPDRDDWESGLNAMECALHLEKSVNQSLLELHKLATDKNDPHLCDFIETYYLSEQVKSIKELGDHVTNLRKMGAPEAGMAEYLFDKHTLGHGD
uptake of the protein by cells [1]: very easily uptake
transport of carrier protein to cancer cells ([2]; from loaded granulocytes): very easily transport
transport of carrier protein to cancer cells ([2]; from loaded lymphocytes): very easily transport
specificity of transfer, cancer cells versus non-cancer cells ([2]; from loaded macrophages): much more specific to cancer cells than to non-cancer cells
transport of carrier protein to cancer cells ([2]; from loaded macrophages): very easily transport
transport of carrier protein to cancer cells ([2]; from loaded monocytes): very easily transport
